# Measured values: paper PMC5177899
# Amino acid sequences for entries named in this document (tags omitted).
# UniProt P29067: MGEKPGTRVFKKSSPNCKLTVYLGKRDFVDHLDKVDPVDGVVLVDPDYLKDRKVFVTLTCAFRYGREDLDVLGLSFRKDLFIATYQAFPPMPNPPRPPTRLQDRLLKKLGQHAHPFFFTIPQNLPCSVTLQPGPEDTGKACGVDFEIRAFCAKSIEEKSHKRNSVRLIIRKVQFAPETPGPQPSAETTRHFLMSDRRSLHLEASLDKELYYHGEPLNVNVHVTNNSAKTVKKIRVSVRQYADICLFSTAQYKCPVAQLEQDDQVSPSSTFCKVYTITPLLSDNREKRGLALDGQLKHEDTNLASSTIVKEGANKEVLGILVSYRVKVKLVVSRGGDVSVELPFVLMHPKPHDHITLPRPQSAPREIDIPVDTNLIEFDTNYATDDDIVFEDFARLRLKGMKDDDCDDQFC
# UniProt O43639: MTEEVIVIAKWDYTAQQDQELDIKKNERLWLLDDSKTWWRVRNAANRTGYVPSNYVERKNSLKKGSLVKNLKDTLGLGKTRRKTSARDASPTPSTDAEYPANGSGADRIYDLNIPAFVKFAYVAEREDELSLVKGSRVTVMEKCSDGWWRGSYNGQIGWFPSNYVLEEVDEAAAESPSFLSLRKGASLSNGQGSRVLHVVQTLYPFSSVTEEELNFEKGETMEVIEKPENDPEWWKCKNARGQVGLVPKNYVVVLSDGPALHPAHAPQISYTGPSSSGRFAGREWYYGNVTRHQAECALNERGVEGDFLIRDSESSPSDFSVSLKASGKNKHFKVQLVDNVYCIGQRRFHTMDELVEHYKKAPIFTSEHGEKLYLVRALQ
# No constants are given. Whether binding was seen depends on the method and setting. Binding seen in cells or lysates may run through a third protein. Some results given as binding are weak or reduced against the parent protein; the word gives no strength. Tags and fused reporters may be left off the sequences shown.
# Experiments:
# [1] = molecular target: T1, Ig.nephrin, membrane-bound fusion protein of the C-terminal cytoplasmic domain of nephrin (AA 1087-1241) (human) (UniProt O60500); assay: co-IP; HEK293T transiently transfected (Ig.nephrin fusion, partner, AT1 receptor), with or without Ang II (1 μM, up to 60 min) and inhibitors (candesartan, PP2, PTX, Ly294002, U73122) or GNAQ siRNA; 1% Triton X-100 lysate, protein G sepharose 1 h at 4 °C; Western blot
# T1 sequence: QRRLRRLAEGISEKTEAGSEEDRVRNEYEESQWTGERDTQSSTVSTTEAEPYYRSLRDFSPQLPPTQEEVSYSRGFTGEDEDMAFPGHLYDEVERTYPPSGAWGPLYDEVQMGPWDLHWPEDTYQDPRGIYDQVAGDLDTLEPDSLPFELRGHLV
# [2] = molecular target: T2, Ig.nephrin, membrane-bound fusion protein of nephrin AA 1087-1221 (human) (UniProt O60500); assay: as above
# T2 sequence: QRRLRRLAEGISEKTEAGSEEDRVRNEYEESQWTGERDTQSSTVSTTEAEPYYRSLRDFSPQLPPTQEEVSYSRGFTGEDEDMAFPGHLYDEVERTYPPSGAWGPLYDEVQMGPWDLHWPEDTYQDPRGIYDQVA
Substance,binding [1],binding [2]
FLAG-tagged β-arrestin2 (from UniProt P29067 1-410),binds,binds
Nck2 (from UniProt O43639 1-380),binds,
